Source: the supplement of paper PMC10060354, “Discovery of a small molecule ligand of FRS2 that inhibits invasion and tumor growth” (Cellular Oncology, 2022)

By UniProt entry, the sequences of proteins in these tests, tags left out. Where a name states a change or a piece, a line headed by the entry shows the natural chain unless it says otherwise.
UniProt Q93008, whole entry: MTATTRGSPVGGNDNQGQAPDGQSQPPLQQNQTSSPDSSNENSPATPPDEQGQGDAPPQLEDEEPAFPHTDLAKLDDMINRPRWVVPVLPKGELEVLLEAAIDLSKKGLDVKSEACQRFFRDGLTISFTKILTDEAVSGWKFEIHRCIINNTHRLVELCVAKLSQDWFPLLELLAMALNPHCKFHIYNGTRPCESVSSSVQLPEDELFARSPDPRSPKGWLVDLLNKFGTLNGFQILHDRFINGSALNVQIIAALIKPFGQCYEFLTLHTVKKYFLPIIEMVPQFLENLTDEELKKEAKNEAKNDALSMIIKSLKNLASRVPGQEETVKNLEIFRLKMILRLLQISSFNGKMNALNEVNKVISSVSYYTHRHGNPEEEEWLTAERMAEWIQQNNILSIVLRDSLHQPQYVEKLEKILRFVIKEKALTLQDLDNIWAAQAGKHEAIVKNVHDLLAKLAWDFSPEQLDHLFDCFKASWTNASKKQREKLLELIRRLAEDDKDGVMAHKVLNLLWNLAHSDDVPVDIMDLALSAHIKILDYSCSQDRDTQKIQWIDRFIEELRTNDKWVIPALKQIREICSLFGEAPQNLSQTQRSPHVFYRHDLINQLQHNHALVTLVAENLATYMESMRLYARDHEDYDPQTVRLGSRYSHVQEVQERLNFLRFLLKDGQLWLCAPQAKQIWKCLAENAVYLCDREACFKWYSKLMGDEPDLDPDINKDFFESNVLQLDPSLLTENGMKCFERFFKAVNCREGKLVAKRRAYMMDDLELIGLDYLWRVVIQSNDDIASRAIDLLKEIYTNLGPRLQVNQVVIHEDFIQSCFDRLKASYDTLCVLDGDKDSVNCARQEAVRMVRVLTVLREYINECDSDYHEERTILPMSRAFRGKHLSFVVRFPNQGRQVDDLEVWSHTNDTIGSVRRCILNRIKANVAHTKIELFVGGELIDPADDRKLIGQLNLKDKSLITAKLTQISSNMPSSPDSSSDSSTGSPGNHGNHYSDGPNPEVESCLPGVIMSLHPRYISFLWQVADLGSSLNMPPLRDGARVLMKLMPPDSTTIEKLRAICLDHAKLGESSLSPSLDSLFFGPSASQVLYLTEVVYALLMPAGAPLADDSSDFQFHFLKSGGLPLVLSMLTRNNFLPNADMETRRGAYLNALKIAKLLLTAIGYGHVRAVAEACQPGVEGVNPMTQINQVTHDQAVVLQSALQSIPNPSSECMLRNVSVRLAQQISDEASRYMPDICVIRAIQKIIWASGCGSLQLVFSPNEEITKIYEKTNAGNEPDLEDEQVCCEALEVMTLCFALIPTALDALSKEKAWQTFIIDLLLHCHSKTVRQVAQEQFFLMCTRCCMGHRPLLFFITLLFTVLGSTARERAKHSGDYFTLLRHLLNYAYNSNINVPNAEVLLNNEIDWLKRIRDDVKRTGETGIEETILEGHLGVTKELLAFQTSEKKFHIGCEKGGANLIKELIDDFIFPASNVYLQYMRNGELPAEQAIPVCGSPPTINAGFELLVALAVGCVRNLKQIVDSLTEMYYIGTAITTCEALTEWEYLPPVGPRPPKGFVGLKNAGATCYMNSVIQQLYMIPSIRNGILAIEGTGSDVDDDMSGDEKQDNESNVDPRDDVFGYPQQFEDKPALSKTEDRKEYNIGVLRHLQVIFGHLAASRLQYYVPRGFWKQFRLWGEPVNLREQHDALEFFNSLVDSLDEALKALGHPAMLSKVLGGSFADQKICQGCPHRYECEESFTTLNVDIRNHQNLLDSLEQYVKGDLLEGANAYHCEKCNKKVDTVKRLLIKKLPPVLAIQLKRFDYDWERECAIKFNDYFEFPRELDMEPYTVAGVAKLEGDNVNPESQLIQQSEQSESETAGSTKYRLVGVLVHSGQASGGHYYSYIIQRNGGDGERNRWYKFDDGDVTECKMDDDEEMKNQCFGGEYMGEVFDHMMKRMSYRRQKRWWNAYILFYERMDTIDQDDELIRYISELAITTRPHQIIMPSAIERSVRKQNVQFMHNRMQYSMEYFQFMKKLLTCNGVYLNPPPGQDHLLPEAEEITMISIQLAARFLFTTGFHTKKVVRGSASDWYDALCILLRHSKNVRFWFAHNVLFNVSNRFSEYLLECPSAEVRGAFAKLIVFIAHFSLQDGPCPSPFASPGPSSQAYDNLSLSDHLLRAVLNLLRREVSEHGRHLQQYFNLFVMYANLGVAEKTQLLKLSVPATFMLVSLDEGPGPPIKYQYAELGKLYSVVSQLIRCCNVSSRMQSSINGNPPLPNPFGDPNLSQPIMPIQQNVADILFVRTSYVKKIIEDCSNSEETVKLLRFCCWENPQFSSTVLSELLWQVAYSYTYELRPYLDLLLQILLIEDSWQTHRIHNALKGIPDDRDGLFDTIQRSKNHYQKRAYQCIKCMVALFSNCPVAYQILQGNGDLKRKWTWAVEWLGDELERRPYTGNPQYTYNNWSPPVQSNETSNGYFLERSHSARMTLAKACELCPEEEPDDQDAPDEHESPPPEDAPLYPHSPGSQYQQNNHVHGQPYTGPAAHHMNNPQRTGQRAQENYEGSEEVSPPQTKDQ
UniProt Q6A555: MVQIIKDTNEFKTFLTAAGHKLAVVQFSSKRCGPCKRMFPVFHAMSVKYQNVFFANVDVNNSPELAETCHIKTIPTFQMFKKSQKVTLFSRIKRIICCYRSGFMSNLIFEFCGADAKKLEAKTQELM
UniProt Q9NWD8: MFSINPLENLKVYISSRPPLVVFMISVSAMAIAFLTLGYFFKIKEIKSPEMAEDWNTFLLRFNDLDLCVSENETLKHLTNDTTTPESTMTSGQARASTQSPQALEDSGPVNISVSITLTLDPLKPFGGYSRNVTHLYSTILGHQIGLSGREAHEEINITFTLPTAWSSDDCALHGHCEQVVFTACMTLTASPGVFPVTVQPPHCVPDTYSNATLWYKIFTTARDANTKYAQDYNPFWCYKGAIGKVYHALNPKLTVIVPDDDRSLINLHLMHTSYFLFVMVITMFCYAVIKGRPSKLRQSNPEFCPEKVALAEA
UniProt P53609, whole entry, looked up: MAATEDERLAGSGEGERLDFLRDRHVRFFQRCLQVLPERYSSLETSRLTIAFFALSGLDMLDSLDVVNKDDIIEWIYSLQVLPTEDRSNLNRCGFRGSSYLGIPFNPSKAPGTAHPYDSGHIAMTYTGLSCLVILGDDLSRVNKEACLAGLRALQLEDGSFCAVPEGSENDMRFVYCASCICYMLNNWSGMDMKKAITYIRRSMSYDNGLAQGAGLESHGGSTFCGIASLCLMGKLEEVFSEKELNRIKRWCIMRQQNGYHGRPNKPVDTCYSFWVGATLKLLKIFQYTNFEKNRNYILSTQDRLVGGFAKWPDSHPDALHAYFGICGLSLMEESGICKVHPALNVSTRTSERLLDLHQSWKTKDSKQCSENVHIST
UniProt Q92968: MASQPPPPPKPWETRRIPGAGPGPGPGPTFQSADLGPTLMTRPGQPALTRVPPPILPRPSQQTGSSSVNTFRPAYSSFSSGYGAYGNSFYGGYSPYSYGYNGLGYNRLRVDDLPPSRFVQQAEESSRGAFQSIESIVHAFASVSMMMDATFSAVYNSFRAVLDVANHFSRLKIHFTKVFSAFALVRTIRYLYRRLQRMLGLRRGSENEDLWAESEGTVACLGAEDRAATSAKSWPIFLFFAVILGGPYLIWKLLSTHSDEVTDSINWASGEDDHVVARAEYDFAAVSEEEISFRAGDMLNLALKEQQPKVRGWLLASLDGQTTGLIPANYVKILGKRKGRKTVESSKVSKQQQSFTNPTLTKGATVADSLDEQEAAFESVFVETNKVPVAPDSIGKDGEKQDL
UniProt Q13217: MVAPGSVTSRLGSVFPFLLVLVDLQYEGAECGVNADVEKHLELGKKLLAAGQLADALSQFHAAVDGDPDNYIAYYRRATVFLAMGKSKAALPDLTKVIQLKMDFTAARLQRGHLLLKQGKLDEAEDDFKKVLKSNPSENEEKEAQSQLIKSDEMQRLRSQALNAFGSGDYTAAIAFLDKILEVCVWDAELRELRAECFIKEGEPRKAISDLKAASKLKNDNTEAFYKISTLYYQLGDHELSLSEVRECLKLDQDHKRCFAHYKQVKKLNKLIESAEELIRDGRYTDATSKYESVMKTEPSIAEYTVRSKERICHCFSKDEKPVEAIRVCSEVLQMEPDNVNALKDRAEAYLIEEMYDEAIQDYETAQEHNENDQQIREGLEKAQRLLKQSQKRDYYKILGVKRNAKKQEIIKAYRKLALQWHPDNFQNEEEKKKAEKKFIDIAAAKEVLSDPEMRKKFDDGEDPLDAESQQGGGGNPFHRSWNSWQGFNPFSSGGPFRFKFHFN
UniProt Q9BZ23: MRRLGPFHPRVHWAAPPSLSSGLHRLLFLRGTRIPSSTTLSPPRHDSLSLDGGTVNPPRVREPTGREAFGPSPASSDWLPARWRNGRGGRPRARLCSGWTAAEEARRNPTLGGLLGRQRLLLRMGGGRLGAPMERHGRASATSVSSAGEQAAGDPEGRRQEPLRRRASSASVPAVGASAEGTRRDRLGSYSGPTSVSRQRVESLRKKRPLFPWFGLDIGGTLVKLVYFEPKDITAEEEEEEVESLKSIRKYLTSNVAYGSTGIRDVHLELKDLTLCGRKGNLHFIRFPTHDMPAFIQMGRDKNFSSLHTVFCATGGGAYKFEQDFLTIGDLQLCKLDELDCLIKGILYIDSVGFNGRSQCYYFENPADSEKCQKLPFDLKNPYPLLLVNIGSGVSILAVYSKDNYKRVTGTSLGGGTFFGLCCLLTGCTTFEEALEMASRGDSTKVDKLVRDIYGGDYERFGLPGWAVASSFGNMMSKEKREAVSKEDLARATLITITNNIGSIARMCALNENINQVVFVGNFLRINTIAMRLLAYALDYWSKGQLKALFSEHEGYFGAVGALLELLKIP
UniProt Q9H9L3: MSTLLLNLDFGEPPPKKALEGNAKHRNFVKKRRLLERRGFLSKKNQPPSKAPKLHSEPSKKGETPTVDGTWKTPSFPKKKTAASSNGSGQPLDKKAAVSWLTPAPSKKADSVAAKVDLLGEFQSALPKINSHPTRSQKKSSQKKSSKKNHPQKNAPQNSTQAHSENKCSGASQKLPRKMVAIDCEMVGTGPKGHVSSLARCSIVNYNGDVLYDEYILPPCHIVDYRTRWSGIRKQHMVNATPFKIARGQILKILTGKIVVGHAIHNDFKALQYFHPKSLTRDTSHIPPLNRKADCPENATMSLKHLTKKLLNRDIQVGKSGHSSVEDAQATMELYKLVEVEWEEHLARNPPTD
UniProt O95865: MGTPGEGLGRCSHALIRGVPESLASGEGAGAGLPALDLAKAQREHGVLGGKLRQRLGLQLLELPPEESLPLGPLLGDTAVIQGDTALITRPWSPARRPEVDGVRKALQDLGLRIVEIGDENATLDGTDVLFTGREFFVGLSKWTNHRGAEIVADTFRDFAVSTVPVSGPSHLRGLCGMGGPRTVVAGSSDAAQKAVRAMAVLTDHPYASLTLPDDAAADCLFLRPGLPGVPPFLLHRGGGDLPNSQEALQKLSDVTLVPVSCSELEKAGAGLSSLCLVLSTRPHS
UniProt Q9NRP4: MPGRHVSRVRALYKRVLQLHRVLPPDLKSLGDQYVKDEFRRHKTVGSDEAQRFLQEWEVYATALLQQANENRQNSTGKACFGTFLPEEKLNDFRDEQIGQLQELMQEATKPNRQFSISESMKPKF
UniProt Q8TCS8: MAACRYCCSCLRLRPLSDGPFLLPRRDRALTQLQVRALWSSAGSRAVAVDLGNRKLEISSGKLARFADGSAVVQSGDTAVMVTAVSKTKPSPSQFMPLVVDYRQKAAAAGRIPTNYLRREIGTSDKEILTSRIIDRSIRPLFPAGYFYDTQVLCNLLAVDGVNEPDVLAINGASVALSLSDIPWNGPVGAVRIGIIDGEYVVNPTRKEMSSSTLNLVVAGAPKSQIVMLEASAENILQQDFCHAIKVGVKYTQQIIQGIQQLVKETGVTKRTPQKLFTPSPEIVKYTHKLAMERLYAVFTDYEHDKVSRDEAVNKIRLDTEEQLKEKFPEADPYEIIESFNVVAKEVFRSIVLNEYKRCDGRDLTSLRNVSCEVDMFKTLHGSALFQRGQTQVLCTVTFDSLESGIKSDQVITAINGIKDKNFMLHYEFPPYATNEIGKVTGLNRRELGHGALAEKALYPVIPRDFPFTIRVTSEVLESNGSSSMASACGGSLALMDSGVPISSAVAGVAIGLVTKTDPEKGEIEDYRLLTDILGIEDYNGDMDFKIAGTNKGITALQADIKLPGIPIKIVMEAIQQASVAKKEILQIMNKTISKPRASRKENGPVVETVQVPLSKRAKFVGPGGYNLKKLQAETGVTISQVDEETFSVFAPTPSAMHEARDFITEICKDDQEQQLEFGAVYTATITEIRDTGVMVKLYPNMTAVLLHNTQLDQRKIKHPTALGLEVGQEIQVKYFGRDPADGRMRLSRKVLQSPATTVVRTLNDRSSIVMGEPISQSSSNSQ
A0A1B0GUS4, A0A1B0GUS4, UniProt A0A1B0GUS4, whole entry: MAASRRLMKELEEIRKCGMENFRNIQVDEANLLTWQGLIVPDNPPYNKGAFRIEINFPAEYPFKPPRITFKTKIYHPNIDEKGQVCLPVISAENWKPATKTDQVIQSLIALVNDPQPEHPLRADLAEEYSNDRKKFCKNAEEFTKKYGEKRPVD

Compound: [O-][N+](C(C1=C(C(O)=C2)NC(C(C=C3)=CC=C3Cl)C4C1C=CC4)=C2Cl)=O
Experiment: melting temperature shift (compound 7 minus DMSO); higher = compound stabilises the protein
Settings: 10 µM
Description: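 Thermal proteome profiling (TMT mass spectrometry) in intact DAOY medulloblastoma cells or DAOY lysates treated with 10 µM compound 7 or DMSO, heated at 10 temperatures from 40.5 to 73.8 °C for 3 min. Melting curves were fitted with the Bioconductor TPP package, and the melting point difference between compound and vehicle is reported per protein (single curve per condition).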

[1] = system: DAOY cell lysate, treatment time: 20 min, 4 °C
[2] = system: intact DAOY cells, treatment time: 90 min, 37 °C

Target | melting temperature shift [1] [°C] | melting temperature shift [2] [°C]
GEMIN4 (UniProt P57678) | -1.92 | -1.24
UniProt Q9UHL9 |  | -0.419
UQCRQ (UniProt O14949) | 2.59 | 0.9
ALG2 (UniProt Q9H553) |  | -0.741
DAP3 (UniProt P51398) | 1.03 | -0.77
ABL1 (UniProt P00519) | -1.74 | 
NDUFS3 (UniProt O75489) | 0.679 | -0.288
DNAJC1 (UniProt Q96KC8) |  | -1.29
UniProt Q9Y5Z7 |  | -1.55
UniProt Q15173 |  | -0.534
UniProt P17535 | 4.63 | 
NLN (UniProt Q9BYT8) | -0.112 | 0.561
GGPS1 (UniProt O95749) | -0.762 | 1.55
RNF123 (UniProt Q5XPI4) | 0.445 | -0.132
UniProt Q13227 | 0.178 | -2.21
ACACA (UniProt Q13085) | -0.576 | 0.133
USP9X (UniProt Q93008) | -0.754 | -0.866
UniProt Q6A555 | -0.492 | 
PSMF1 (UniProt Q92530) | -0.141 | -0.525
UniProt Q9NRH3 |  | 0.91
YWHAZ (UniProt P63104) | -1.02 | 0.567
MYO6 (UniProt Q9UM54) | -0.0726 | -0.845
SNRPC (UniProt P09234) |  | -1.06
PSME1 (UniProt Q06323) | -1.38 | 

Target | melting temperature shift [1] [°C] | melting temperature shift [2] [°C]
HIST1H1E (UniProt P10412) |  | -1.15
UniProt Q7Z6K5 | -1.11 | 0.563
UniProt Q9NWD8 | 0.279 | -2.26
PSMA2 (UniProt P25787) | 0.594 | 0.745
MGLL (UniProt Q99685) | -0.371 | 1.79
ISOC1 (UniProt Q96CN7) | -1.4 | 2.05
PGGT1B (UniProt P53609) | -0.802 | -0.0363
MAPRE3 (UniProt Q9UPY8) | -0.843 | -0.0617
FERMT1 (UniProt Q9BQL6) | -2.21 | -0.371
OS9 (UniProt Q13438) | 0.452 | 0.169
MORF4L2 (UniProt Q15014) | 0.51 | 1.37
LRP8 (UniProt Q14114) |  | 0.678
ARPC1A (UniProt Q92747) | -1.32 | 0.817
TLK2 (UniProt Q86UE8) | -0.604 | 
CSRP1 (UniProt P21291) | -2.92 | 
PLA2G4A (UniProt P47712) | -0.782 | -1.31
CCNK (UniProt O75909) | -0.711 | -0.104
UniProt P29803 |  | -0.703
RQCD1 (UniProt Q92600) | -0.626 | 0.391
PFKFB2 (UniProt O60825) |  | -1.52
GNL1 (UniProt P36915) | 0.0743 | -1.11
POLDIP3 (UniProt Q9BY77) | 1.1 | 2.27
DDOST (UniProt P39656) | 1.29 | -0.426
PEX13 (UniProt Q92968) | 0.434 | -0.935

Target | melting temperature shift [1] [°C] | melting temperature shift [2] [°C]
SEMA3C (UniProt Q99985) | -1.05 | 
GAK (UniProt O14976) | 0.651 | 0.727
HSCB (UniProt Q8IWL3) | 0.148 | -1.85
SLC7A1 (UniProt P30825) | 5.51 | -1.03
PARN (UniProt O95453) | -0.291 | -1.31
DTWD1 (UniProt Q8N5C7) | 0.204 | 
VPS51 (UniProt Q9UID3) | -0.448 | 
UniProt O76027 |  | 1.86
DNAJC3 (UniProt Q13217) | 0.348 | 0.412
NUP93 (UniProt Q8N1F7) | -0.0336 | -0.396
CTSC (UniProt P53634) | -1.6 | -0.403
UniProt Q9H2A2 |  | 2.11
GRAMD3 (UniProt Q96HH9) |  | -1.43
SAMM50 (UniProt Q9Y512) | 1.12 | 0.305
FUT8 (UniProt Q9BYC5) | 1.17 | 0.533
GSTO1 (UniProt P78417) | -0.519 | 1.96
KIF13A (UniProt Q9H1H9) |  | -1.37
PANK2 (UniProt Q9BZ23) | -4.26 | 
GMPR2 (UniProt Q9P2T1) | 0.331 | 
PSMD8 (UniProt P48556) | -0.947 | -1.37
SRSF4 (UniProt Q08170) | -0.666 | -1.08
NCAPH2 (UniProt Q6IBW4) | 1.78 | -1.5
ISG20L2 (UniProt Q9H9L3) | 0.975 | 
UniProt P62068 | 0.583 | 0.652

Quoted at random: four entries already listed
Target | melting temperature shift [1] [°C] | melting temperature shift [2] [°C]
SLC7A1 (UniProt P30825) | 5.51 | -1.03
DNAJC3 (UniProt Q13217) | 0.348 | 0.412
UniProt Q9H2A2 |  | 2.11
PARN (UniProt O95453) | -0.291 | -1.31

A different layout for some results above:
Target	melting temperature shift [1] [°C]	melting temperature shift [2] [°C]
UniProt O76027		1.86
DNAJC3 (UniProt Q13217)	0.348	0.412
NUP93 (UniProt Q8N1F7)	-0.0336	-0.396

(listing goes on)

Target | melting temperature shift [1] [°C] | melting temperature shift [2] [°C]
RNF114 (UniProt Q9Y508) | -2.18 | 1.44
LGALSL (UniProt Q3ZCW2) | -1.79 | 
NCOA7 (UniProt Q8NI08) | -0.502 | -2.11
UniProt P53805 | -0.588 | 
RIF1 (UniProt Q5UIP0) | -0.816 | -1.15
DDAH2 (UniProt O95865) | 0.246 | 0.543
UHRF1 (UniProt Q96T88) | -0.244 | -0.0226
SEC22B (UniProt O75396) | 1.51 | -0.427
UniProt Q15543 | -1.04 | 
PRMT7 (UniProt Q9NVM4) | -0.0233 | 
FMR1 (UniProt Q06787) | 0.146 | -0.339
ATL3 (UniProt Q6DD88) | 0.771 | -1.3
TMEM68 (UniProt Q96MH6) | -2.3 | 0.133
TIGAR (UniProt Q9NQ88) | -0.726 | 0.835
HELB (UniProt Q8NG08) |  | -0.192
UniProt O43516 | 0.354 | 
ICAM1 (UniProt P05362) | 4.27 | 
SDHAF3 (UniProt Q9NRP4) | -0.0788 | 
UniProt Q04844 |  | -1.66
UniProt O15162 | 1.71 | -1.58
CBLB (UniProt Q13191) |  | 0.379
PDE12 (UniProt Q6L8Q7) | -0.621 | 0.364
POLB (UniProt P06746) | -2.13 | 
SRRM2 (UniProt Q9UQ35) | 0.567 | -1.02

Target | melting temperature shift [1] [°C] | melting temperature shift [2] [°C]
BAG5 (UniProt Q9UL15) | -0.655 | 0.123
MAPRE2 (UniProt Q15555) | -0.876 | 1.34
UniProt Q6UX15 | -4.79 | 
A0A0B4J2D5 | 1.07 | -0.21
PGAM5 (UniProt Q96HS1) | 1.18 | -0.377
BYSL (UniProt Q13895) | -0.271 | 0.142
PSMB7 (UniProt Q99436) | -0.167 | 0.213
UniProt A6NNZ2 |  | -0.819
PNPT1 (UniProt Q8TCS8) | 0.788 | -0.861
NPLOC4 (UniProt Q8TAT6) | -0.196 | -0.766
UniProt Q8NBM8 | 1.06 | 1.18
UniProt Q86V88 | -1.1 | 0.0507
PEBP1 (UniProt P30086) | -0.789 | -0.77
UniProt P21675 | -1.59 | 
MYCBP2 (UniProt O75592) | 1.57 | 
RAB23 (UniProt Q9ULC3) | -0.283 | -0.564
A0A1B0GUS4, A0A1B0GUS4 |  | -0.425
HDAC1 (UniProt Q13547) | 1.15 | -0.649
MYADM (UniProt Q96S97) | 2.07 | 
SNRPD3 (UniProt P62318) | -0.415 | 0.57

Single values are uncertain, as repeats are few or missing.
